From patent WO2017175058A1 (dated 2017)
Results are given in words; binding and its absence hold for the method and conditions named. Some results given as binding are weak or reduced against the parent protein; the word gives no strength.

Key:
[1] = target: cynomolgus VISTA on K562 cells (cynomolgus); assay: FACS K562-C7
[2] = target: cynomolgus VISTA extracellular domain (cynomolgus); assay: ELISA

B1: VSTB53 (antibody, human IgG1, V domains shown)
VH: QVQLVQSGAEVKKPGASVKVSCKASGYTFTHYTIHWVRQAPGQGLEWMGYIIPSSGYSEYNQKFKDRVTMTRDTSTSTVYMELSSLRSEDTAVYYCARGAYDDYYDYYAMDYWGQGTLVTVSS
VL: DIVMTQSPLSLPVTPGEPASISCRSSQTIVHSNGNTYLEWYLQKPGQSPQLLIYKVSNRFSGVPDRFSGSGSGTDFTLKISRVEAEDVGVYYCFQASHVPWTFGQGTKLEIK
In the case of B1, the binding [1] is reported as “binds” and the binding [2] is reported as “binds”.
